In PMC11554567 one finds binding data, which are given here for two molecules.

Amino acid sequences for entries named in this document (tags omitted).
UniProt Q9UH17: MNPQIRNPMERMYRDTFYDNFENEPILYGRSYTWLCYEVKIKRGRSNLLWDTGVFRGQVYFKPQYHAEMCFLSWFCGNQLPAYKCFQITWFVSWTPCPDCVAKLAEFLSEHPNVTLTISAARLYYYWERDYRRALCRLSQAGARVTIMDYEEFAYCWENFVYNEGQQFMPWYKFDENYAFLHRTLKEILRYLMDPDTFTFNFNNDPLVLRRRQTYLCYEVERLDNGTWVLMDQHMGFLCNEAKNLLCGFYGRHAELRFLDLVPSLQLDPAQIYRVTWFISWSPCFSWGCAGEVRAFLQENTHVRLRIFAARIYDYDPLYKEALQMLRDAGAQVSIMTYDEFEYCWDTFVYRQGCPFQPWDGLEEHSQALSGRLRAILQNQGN
UniProt P35637: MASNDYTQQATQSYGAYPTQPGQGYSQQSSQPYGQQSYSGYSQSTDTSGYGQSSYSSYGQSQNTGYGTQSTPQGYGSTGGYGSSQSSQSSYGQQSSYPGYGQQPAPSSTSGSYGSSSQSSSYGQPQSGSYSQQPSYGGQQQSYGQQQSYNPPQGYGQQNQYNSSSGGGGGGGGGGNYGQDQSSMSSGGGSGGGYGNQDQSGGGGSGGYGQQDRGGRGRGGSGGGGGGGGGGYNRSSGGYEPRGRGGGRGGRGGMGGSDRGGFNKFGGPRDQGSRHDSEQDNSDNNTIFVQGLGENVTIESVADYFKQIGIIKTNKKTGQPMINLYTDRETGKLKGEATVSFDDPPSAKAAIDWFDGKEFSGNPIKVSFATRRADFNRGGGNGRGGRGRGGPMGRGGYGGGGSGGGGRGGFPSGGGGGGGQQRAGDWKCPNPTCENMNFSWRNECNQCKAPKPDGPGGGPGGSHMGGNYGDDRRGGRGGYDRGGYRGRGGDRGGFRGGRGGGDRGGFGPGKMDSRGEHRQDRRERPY

No constants are given. Whether binding was seen depends on the method and setting. In cells and extracts the contact can be indirect. Some entries that bind do so weakly or less than the wild type.

For this experiment, the target named is APOBEC3B (human) (UniProt Q9UH17). The experiment is described as follows: co-IP; co-immunoprecipitation of A3B in T-47D cells; association persisted after removal of nucleic acids by benzonase treatment.

On to FUS (from UniProt P35637 1-526), for which the binding result is “binds”.

B1: NONO (protein, UniProt Q15233 1-471)
chain: MQSNKTFNLEKQNHTPRKHHQHHHQQQHHQQQQQQPPPPPIPANGQQASSQNEGLTIDLKNFRKPGEKTFTQRSRLFVGNLPPDITEEEMRKLFEKYGKAGEVFIHKDKGFGFIRLETRTLAEIAKVELDNMPLRGKQLRVRFACHSASLTVRNLPQYVSNELLEEAFSVFGQVERAVVIVDDRGRPSGKGIVEFSGKPAARKALDRCSEGSFLLTTFPRPVTVEPMDQLDDEEGLPEKLVIKNQQFHKEREQPPRFAQPGSFEYEYAMRWKALIEMEKQQQDQVDRNIKEAREKLEMEMEAARHEHQVMLMRQDLMRRQEELRRMEELHNQEVQKRKQLELRQEEERRRREEEMRRQQEEMMRRQQEGFKGTFPDAREQEIRMGQMAMGGAMGINNRGAMPPAPVPAGTPAPPGPATMMPDGTLGLTPPTTERFGQAATMEGIGAIGGTPPAFNRAAPGAEFAPNKRRRY
Take B1: the binding entry is on record as “binds”.
